# Laboratory results reported in the odorant receptor screen of Mainland et al. (2015).
# Several values for one entry are separate records, joined by “and”; a condition that tells them apart may be missing. Identical values can stand only once. The list shows a part of the results. Single wells; the ratio to wells without odorant was worked out here, and repeats agree poorly.
# Columns and labels:
# Assay in all cases: odorant receptor activation (CRE luciferase / Renilla) (fold of no-odor wells); higher = more activation
# Settings in all cases: 100 µM
# [1] = system: OR51A2 clone 1577
# [2] = system: OR51A4 G45C/L227P/R267G clone 1166
# [3] = system: OR51B2 clone 1551
# [4] = system: OR51B4 V36I/M147T clone 1552
# [5] = system: OR51B5 clone 1553
# [6] = system: OR51B6 clone 1554
# [7] = system: OR51D1 clone 1206
# [8] = system: OR51E1 S11N clone 1532
# [9] = system: OR51E1 clone 1129
# [10] = system: OR51E2 clone 1205
# [11] = system: OR51F2 clone 1330
# [12] = system: OR51G1 clone 1165
# [13] = system: OR51G2 clone 1199
# [14] = system: OR51H1 clone 1187
# [15] = system: OR51I1 clone 1555
# [16] = system: OR51I2 clone 1133
# [17] = system: OR51J1 R75H clone 1698
# [18] = system: OR51L1 I281M clone 1535
# [19] = system: OR51L1 T196I/A207V clone 1533
# [20] = system: OR51L1 clone 1183
SMILES,odorant receptor activation [1],odorant receptor activation [2],odorant receptor activation [3],odorant receptor activation [4],odorant receptor activation [5],odorant receptor activation [6],odorant receptor activation [7],odorant receptor activation [8],odorant receptor activation [9],odorant receptor activation [10],odorant receptor activation [11],odorant receptor activation [12],odorant receptor activation [13],odorant receptor activation [14],odorant receptor activation [15],odorant receptor activation [16],odorant receptor activation [17],odorant receptor activation [18],odorant receptor activation [19],odorant receptor activation [20]
CC(C)C=O [isobutyraldehyde],0.726,1.08,0.741,0.828,0.902,0.882,0.99,0.85 and 1.08,1.11,1.06,0.905 and 0.869,0.788,1.13,0.873,0.843,0.899,0.87,0.869 and 0.953,1.32 and 0.846,0.783
CCCCCCCC=CC=O [2-decenal],1.02,1.35,0.901,0.95,1,1.2,1.44,1.58,1.2,0.667,1.18,1.34,1.24,0.872,1.08,1.24,0.937,1.53,1.17,0.924
c1cnccn1 [pyrazine],0.782,0.961,1.07,0.908,0.883,0.615,1.33,0.813,0.874,0.68,0.659,0.777,0.961,1.04,0.879,0.875,0.604,0.976,0.921,0.812
CCCCCCCCC=O [nonyl aldehyde],0.857,1.01,1.57,0.847,1.04,0.747,1.02,1,1.35,1.33,0.893,1.03,0.855,0.831,0.916,1.28,0.732,1.3,0.848,0.982
c1ccc(Oc2ccccc2)cc1 [diphenyl ether],0.915,0.865,0.902,0.945,0.882,1.14,0.842,1.22,1,0.922,1.05,1.03,1.13,0.941,0.771,0.846,0.794,1.18,1.4,0.828
"CC1CCC(C(C)C)C(O)C1 (single isomer, unassigned; (-)) [(-)-menthol]",1.03,1.14,0.867,0.989,1.24,1.01,1.32,0.758,1.15,0.903,0.851,1.07,1.18,1.12,1.01,1.23,0.726,3.45,2.03,1.05
